No constants are given. Whether binding was seen depends on the method and setting. For some assays here: Binding seen in cells or lysates may run through a third protein. Some binding calls cover weakened binding; strength is not graded here. For some assays here: Tags and fused reporters may be left off the sequences shown. Each block holds one substance with its values, some of them ahead of it.
Columns and labels:
[1] = target: T1, PPP1R15B(631–701–H6) (human) (UniProt Q5SWA1); test: crystal structure; ternary complex PP1G(1–323)-PPP1R15B(631–701–H6)-actin; 0.2 M CaCl2, 0.1 M Hepes pH 7.0, 20% PEG6000; molecular replacement; 7.9 Å; both purified
T1 sequence: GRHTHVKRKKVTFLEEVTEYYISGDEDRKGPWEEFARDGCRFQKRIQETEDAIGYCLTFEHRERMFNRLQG

[2] = target: T2, GST-PPP1R15B(630–701) (human) (UniProt Q5SWA1); test: pull-down; GST-PPP1R15 functional core and untagged PP1 co-expressed in E. coli; clarified lysate bound to glutathione sepharose 4B at 4°C, washed in 50 mM Tris pH 7.4, 500 mM NaCl, eluted with 40 mM GSH
T2 sequence: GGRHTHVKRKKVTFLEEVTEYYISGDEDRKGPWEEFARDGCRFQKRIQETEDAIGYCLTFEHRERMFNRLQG

[3] = target: T3, PPP1R15B(631–660) (human) (UniProt Q5SWA1); test: crystal structure; binary complexes PP1G(7–300)-PPP1R15B(631–660, 631–669 or 631–684); sitting drops; molecular replacement; 1.55–1.85 Å; both purified
T3 sequence: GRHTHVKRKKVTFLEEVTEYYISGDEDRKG

[4] = target: T4, PPP1R15B(631–684) (human) (UniProt Q5SWA1); test: as above
T4 sequence: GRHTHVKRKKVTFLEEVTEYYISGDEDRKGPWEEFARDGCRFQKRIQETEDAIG

[5] = target: T5, PPP1R15B(631–669) (human) (UniProt Q5SWA1); test: as above
T5 sequence: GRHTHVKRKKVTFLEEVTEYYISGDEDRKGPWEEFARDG

[6] = target: T6, PPP1R15B(630–701) (human) (UniProt Q5SWA1); test: SEC; binary complex after TEV cleavage of GST; tandem Superdex 75 and Superdex 200 10/300 with a GSTrap 4B column at the outflow; 20 mM HEPES, 100 mM NaCl, 0.1 mM MgCl2, 0.5 mM MnCl2, 0.1 mM ADP, 0.2 mM TCEP; both purified
T6 sequence: T2 sequence

[7] = target: T7, PPP1R15B(631–701)-MBP (human) (UniProt Q5SWA1); test: as above
T7 sequence: T1 sequence

[8] = target: T8, PPP1R15B(631–701) (human) (UniProt Q5SWA1); test: SEC; ternary complex: stoichiometric binary complex on glutathione-sepharose resin incubated with latrunculin B-blocked G-actin 90–120 min at 4°C, eluted, TEV-cleaved, tandem Superdex 75/200 SEC; fractions on Coomassie-stained SDS-PAGE; both purified
T8 sequence: T1 sequence

- binding [1]: binds
Substance: PP1G(1–323) (from UniProt P63087 1-323) (enzyme)

- binding [2]: binds
- binding [3]: binds
- binding [4]: binds
- binding [5]: binds
- binding [6]: binds
- binding [7]: binds
Substance: PP1G(7–300) (from UniProt P63087 7-300) (enzyme)

- binding [8]: binds
Substance: PP1G(7–323) (from UniProt P63087 7-323) (enzyme)
